Values of other authors as cited in patent US6551812B1, “Compositions and methods relating to the peroxisomal proliferator activated receptor-α mediated pathway” (CuraGen Corporation, priority 1998, dated 2003).
At least one compound was matched to its structure with a doubt left.

Legend:
[1] = target: T1, steroid 3-α-dehydrogenase (Homo sapiens, UniProt P17516); conditions: at physiological pH; cited from earlier work
T1 sequence (P17516 1-323): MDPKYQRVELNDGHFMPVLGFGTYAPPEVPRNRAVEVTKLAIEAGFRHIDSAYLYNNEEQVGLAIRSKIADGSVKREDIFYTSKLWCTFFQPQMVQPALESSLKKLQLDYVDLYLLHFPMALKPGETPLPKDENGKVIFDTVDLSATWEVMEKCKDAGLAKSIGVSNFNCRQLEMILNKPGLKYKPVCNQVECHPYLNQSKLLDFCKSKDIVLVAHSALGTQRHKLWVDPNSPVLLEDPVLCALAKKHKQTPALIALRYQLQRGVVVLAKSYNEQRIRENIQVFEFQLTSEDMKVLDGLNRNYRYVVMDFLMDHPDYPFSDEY

acetyl CoA carboxylase = conditions: co-incubation of hepatocytes with ligand; cited from earlier work
[2] = test system: CYP4A1, CYP4A2 and CYP4A3 genes; conditions: liver and kidney; cited from earlier work
[3] = test system: ATP-citrate lyase, acetyl-CoA carboxylase, and fatty acid synthase; conditions: rat livers, following administration of clofibrate; cited from earlier work

In the case of `CC(C)OC(=O)C(C)(C)Oc1ccc(C(=O)c2ccc(Cl)cc2)cc1` [Fenofibrate], the “action on steroid 3-α-dehydrogenase” value [1] is listed as “weak inhibitors”.
For `CCOC(=O)C(C)(C)Oc1ccc(Cl)cc1` [clofibrate], the “acetyl CoA carboxylase activity” value (acetyl CoA carboxylase) is listed as “reduced”, the “action on steroid 3-α-dehydrogenase” value [1] is listed as “weak inhibitors” and the “expression of CYP4A1, CYP4A2 and CYP4A3 genes” value [2] is listed as “induced”. For the same molecule, the “ATP-citrate lyase, acetyl-CoA carboxylase, and fatty acid synthase regulation” value [3] was “downregulating”.
